Results as given in paper PMC12216916.
These are yes or no findings as the source states them, for the method shown. Binding seen in cells or lysates may run through a third protein. Some results given as binding are weak or reduced against the parent protein; the word gives no strength.

Sequences of proteins named here, by UniProt entry; tags and fusion partners are left off.
UniProt P38936: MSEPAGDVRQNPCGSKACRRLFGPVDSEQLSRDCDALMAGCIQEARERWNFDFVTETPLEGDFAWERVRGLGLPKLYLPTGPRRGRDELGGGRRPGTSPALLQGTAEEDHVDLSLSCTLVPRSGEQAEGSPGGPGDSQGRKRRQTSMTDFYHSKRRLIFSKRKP
UniProt Q8IYM9: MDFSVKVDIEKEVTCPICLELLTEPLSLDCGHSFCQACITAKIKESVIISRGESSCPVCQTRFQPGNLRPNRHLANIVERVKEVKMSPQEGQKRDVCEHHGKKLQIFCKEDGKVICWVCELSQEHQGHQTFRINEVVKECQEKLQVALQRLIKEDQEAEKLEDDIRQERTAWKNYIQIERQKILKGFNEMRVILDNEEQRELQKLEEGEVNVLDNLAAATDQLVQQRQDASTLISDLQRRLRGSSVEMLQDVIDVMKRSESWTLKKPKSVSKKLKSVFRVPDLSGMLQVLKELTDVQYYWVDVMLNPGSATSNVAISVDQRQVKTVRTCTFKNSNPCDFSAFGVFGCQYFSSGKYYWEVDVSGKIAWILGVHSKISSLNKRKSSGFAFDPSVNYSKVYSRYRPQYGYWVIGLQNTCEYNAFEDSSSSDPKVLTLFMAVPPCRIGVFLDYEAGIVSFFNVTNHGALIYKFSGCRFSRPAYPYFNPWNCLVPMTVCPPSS

Columns and labels:
[1] = biological target: SF-tagged (S-protein tag and Flag tag) p21 (UniProt P38936); test: pull-down; S-protein pull-down from lysate of 293T cells co-transfected with p21-SF and Myc-TRIM22; NETN buffer (20 mM Tris-Cl pH 7.4, 100 mM NaCl, 1 mM EDTA, 0.5% NP-40), S-protein agarose, 4 °C, 4 h; Western blot (the legend speaks of immunoprecipitation with anti-Myc and anti-Flag antibodies)
[2] = biological target: SF-tagged full-length TRIM22 (UniProt Q8IYM9); test: pull-down; S-protein pull-down from lysate of 293T cells transiently expressing SF-tagged TRIM22; endogenous p21 detected by Western blot; NETN buffer, S-protein agarose, 4 °C, 4 h (the legend speaks of immunoprecipitation with anti-p21 and anti-Flag antibodies)

binding [1] | binding [2] | Substance
binds |  | Myc-tagged TRIM22 (tripartite motif-containing 22) (from UniProt Q8IYM9 1-498)
 | binds | endogenous p21 (from UniProt P38936 1-164)
